Results are given in words; binding and its absence hold for the method and conditions named. In cells and extracts the contact can be indirect. Binding can be weak; no strength is given. Tags and fused reporters may be left off the sequences shown.
Molecular target: T1, FLAG-tagged full-length FBG1 (UniProt Q9UK22)
T1 sequence: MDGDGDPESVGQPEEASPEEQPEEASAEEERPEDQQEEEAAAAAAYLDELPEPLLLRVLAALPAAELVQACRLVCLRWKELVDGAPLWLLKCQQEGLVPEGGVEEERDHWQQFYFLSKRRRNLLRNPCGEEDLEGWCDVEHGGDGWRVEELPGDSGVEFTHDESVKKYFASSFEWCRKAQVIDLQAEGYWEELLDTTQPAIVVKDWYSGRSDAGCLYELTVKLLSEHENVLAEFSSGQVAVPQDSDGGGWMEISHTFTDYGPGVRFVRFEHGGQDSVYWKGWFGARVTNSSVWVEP
Assay: co-IP; Hepa1-6 cells co-transfected with FLAG-FBG1 or FLAG-FBG1ΔN (or empty pCMV) and A1AT variants; lysed 48 h later in FLAG lysis buffer (50mM Tris pH 7.4, 150mM NaCl, 1mM EDTA, 1% Triton X-100); anti-FLAG M2 affinity gel, 4°C, 2 hours; eluted with 3xFLAG peptide; blot with anti-A1AT

The chains behind the UniProt entries cited, without tags or fusion partners. Where a name states a change or a piece, a line headed by the entry shows the natural chain unless it says otherwise.
UniProt P01009: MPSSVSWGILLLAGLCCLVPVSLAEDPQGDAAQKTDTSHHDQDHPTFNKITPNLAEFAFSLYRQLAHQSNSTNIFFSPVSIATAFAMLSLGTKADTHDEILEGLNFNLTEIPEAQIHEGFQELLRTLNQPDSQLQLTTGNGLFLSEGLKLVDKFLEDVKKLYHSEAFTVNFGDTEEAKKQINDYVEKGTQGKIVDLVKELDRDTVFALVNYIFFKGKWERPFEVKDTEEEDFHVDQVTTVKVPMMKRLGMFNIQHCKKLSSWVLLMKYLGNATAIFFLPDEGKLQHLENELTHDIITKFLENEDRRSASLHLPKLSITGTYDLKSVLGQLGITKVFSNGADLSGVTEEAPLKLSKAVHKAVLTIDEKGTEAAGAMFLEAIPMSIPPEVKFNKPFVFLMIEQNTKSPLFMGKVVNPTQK

Substance: A1AT-K (the truncation mutant null Hong Kong of alpha-1 antitrypsin) (from UniProt P01009)
- binding: binds

— PMC4546667
